From PMC9416163, “Antiproliferative Copper(II) Complexes Bearing Mixed Chelating Ligands: Structural Characterization, ROS Scavenging, In Silico Studies, and Anti-Melanoma Activity” (Pharmaceutics, 2022)

Test system: B16 murine melanoma cells
Assay: MTT cell viability assay on B16 cells
Assay type: cell-based, mouse
Description: Human fibroblast cells (BJ-ATCC CRL-2522, USA) were grown in minimal essential medium (MEM) supplemented with 2 mM L-Glutamine, 10% fetal calf serum (FCS), 100 units/mL of penicillin, and 100 µg/mL of streptomycin at 37 °C in a humidified incubator under an atmosphere containing 5% CO2. Mouse melanoma cells (B16-ATCC CRL-6475, USA) were grown in DMEM (Dulbecco’s Modified Eagle Medium) supplemented with reagents like MEM. All cell cultivation media and reagents were purchased from Biochrom AG (Berlin, Germany) and Sigma-Aldrich (Darmstadt, Germany).
Cell viability was evaluated using the MTT assay (3-(4,5-dimethylthiazol-2-yl)-2,5-diphenyltetrazolium bromide) as previously described. Briefly, BJ and B16 cells were seeded in 96-well plates at densities of 10,000 cells/well and 7000 cells/well and further cultured in the medium for 24 h. The next day, the investigated compounds were added at a concentration of 1 to 25 μM for 24 and 48 h. The cells cultivated in medium without the studied samples served as negative controls. After incubation for the desired times, the medium was replaced with MTT solution (1 mg/mL) and incubated for an additional 4 h at 37 °C. Finally, the medium was collected, and DMSO was used to dissolve the insoluble formazan product. A Mithras 940 (Berthold, Bad Wildbad, Germany) plate reader was used to measure the absorbance of the samples at 570 nm. The data were corrected for background, and the percentage of viable cells was obtained using the following equation:Cell viability = [(A570 of treated cells)/(A570 of untreated cells)] × 100 (%)
Half-maximal inhibitory concentration (IC50) was determined by fitting the data with a sigmoidal logistic function using Origin 8.1 (Microcal Inc., Northampton, MA, USA) software.

SMILES	therapeutic index (TI) (BJ versus B16, 24 h)	therapeutic index (TI) (BJ versus B16, 48 h)
CC(=O)C=C([O-])c1ccccc1.[Cu+2].[O-][Cl+3]([O-])([O-])[O-].c1cnc2c(c1)ccc1cccnc12 [Compound (1), [Cu(phen)(bzac)(ClO4)]]	1.13	1.27
CC(=O)C=C([O-])c1ccccc1.O.O=[N+]([O-])[O-].[Cu+2].c1cnc2c(c1)ccc1cccnc12 [Compound (2), [Cu(phen)(bzac)(NO3)]⋅H2O]	1.83	1.72
CC(=O)C=C([O-])c1ccccc1.[Cu+2].[O-][Cl+3]([O-])([O-])[O-].c1ccc(-c2ccccn2)nc1 [Compound (3), [Cu(bpy)(bzac)]ClO4]	1.32	2.24
CC(=O)C=C([O-])c1ccccc1.O=[N+]([O-])[O-].[Cu+2].c1ccc(-c2ccccn2)nc1 [Compound (4), [Cu(bpy)(bzac)(NO3)]]	1.82	2.19
